Screen size: about 320,000 compounds; about 620 (0.19%) were called active. Inconclusive results, whose numbers are uncertain, are shown with a selection of clear calls. Cut-off read from the data, not from the text of the source: active = activation above about 80%; inconclusive = between about 30% and that limit; inactive = weaker than that.
molecular target: Transient receptor potential cation channel subfamily V member 1 (Homo sapiens) (UniProt Q8NER1); experiment: HTS Assay for Compounds that Act as Agonists of the Vanilloid Receptor 1; conditions: TRPV1-expressing cells, Fluo-8 calcium influx, agonist mode; at 8.33 µM, active compounds read high; note: 0% is about no effect
Summary of the method: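 Fluo-8 calcium influx in TRPV1-expressing cells, kinetic read (ex 480/em 520 nm). Compound added and read 3 min for agonist activity, followed by capsaicin at EC20 final and 2 min further read for enhancement.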

Chains of the proteins cited; added tags and fusions are not shown.
UniProt Q8NER1, whole entry, looked up: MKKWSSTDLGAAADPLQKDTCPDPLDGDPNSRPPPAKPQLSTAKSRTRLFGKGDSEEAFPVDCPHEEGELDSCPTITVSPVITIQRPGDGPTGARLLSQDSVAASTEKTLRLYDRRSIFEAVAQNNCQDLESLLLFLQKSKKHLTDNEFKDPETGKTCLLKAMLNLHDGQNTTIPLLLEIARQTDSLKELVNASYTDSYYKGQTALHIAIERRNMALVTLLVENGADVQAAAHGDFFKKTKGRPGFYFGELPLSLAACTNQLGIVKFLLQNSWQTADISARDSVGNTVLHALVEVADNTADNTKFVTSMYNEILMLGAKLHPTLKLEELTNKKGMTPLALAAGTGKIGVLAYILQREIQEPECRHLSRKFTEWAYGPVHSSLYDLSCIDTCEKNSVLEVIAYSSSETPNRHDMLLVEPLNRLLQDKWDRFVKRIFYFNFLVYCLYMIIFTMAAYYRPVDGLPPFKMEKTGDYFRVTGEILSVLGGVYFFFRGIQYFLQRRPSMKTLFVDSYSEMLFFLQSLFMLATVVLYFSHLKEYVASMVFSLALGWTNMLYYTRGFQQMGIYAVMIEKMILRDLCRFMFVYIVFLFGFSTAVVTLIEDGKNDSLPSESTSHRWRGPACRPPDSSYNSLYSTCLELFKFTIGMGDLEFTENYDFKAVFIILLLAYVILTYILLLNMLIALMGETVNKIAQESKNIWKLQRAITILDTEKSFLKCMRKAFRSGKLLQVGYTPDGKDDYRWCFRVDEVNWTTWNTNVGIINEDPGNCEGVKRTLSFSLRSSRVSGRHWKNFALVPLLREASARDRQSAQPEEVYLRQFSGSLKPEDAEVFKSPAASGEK

Row | SMILES | activation
1 | COc1ccc(S(=O)(=O)N2CCOCC2)cc1NC(=O)CSc1cccc[n+]1[O-] | inactive: 5.01%
2 | N#CC1(c2ccc(NC(=O)c3ccccc3)cc2)CCCC1 | inconclusive: 57.8%
3 | CCCCCC(=O)NNC(=S)NC(=O)c1ccc([N+](=O)[O-])cc1 | inactive: -3.15%
4 | CCCCCC(=O)Nc1ccc(Cc2ccncc2)cc1 | inconclusive: 35.6%
5 | COc1ccccc1NC(=O)CSc1nc(=O)n2cc(C)ccc2n1 | inactive: 0.615%
6 | CC(=O)Nc1cccc(OCC(=O)NCCC2=CCCCC2)c1 | inconclusive: 54.7%
7 | CC1(C)C(=O)N(CCN2CCC(C(=O)c3ccc(F)cc3)CC2)c2ccccc21 | inactive: 29.5%
8 | Cc1nn(C2CCCO2)c(=O)nc1N (stereo not drawn) | inactive: -1.69%
9 | CCOc1cc(S(=O)(=O)N2CC=C(c3ccc(F)cc3)CC2)c(OCC)cc1-n1cnnn1 | inactive: 4.47%
10 | C/C(=N\NC(=S)NC1CCCCC1)c1ccc(Cl)c(Cl)c1 | inconclusive: 30.9%
11 | O=C(CCc1ccccc1)NC(c1cccs1)c1cc(Cl)c2cccnc2c1O (stereo not drawn) | inactive: 1.75%
12 | O=C(CNC(=O)C(c1ccccc1)c1ccccc1)N/N=C\c1cccc(O)c1 | inactive: -7.19%
13 | O=C(c1cccs1)N1CCN(c2ccc([N+](=O)[O-])cc2F)CC1 | inconclusive: 38.1%
14 | CCCNC(=O)COC(=O)c1ccc(-c2ccccc2)cc1 | inconclusive: 44.7%
15 | Cc1ccc(C2=NOC(C)(c3nnc(-c4ccc(F)cc4)o3)C2)cc1 (stereo not drawn) | inconclusive: 31.7%
16 | COc1cccc(C2C(C(=O)c3cccs3)=C(O)C(=O)N2c2cc(C)on2)c1 (stereo not drawn) | inactive: -3.3%
17 | CN(C)c1ccc(/C=N/N2C(=S)SC(C)(C)C2N(O)C(=O)Nc2ccc([N+](=O)[O-])cc2)cc1 (stereo not drawn) | inactive: 0.297%
18 | O=C(Nc1ccccc1O)c1cccc(S(=O)(=O)N2CCOCC2)c1 | inconclusive: 51.8%
19 | CCOC(=O)C1=C(N)N(c2ccc(C)cc2)C2=C(C(=O)CCC2)C1c1cccs1 (stereo not drawn) | inconclusive: 49.1%
20 | Cc1c(C(=O)N2CCCC2)c(S(=O)(=O)NCCc2ccccc2)c(C)n1C | inactive: 3.28%

Single entries from the list.
In activation, Cc1c(C(=O)N2CCCC2)c(S(=O)(=O)NCCc2ccccc2)c(C)n1C is listed with inactive: 3.28%
In activation, CN(C)c1ccc(/C=N/N2C(=S)SC(C)(C)C2N(O)C(=O)Nc2ccc([N+](=O)[O-])cc2)cc1 (stereo not drawn) is listed with inactive: 0.297%
In activation, COc1cccc(C2C(C(=O)c3cccs3)=C(O)C(=O)N2c2cc(C)on2)c1 (stereo not drawn) is listed with inactive: -3.3%
In activation, CCCNC(=O)COC(=O)c1ccc(-c2ccccc2)cc1 is listed with inconclusive: 44.7%
In activation, O=C(Nc1ccccc1O)c1cccc(S(=O)(=O)N2CCOCC2)c1 is listed with inconclusive: 51.8%

Following part:

Row | SMILES | activation
21 | O=C(N/N=C\c1ccc(Cl)s1)c1ccc(Cn2cccn2)o1 | inconclusive: 38.4%
22 | Cc1ccc2c(c1)Oc1ccc(NC(=O)CCl)cc1C(=O)N2 | inactive: 0.999%
23 | Cc1c(C(=O)OCC(C)C)[nH]c2c1C(=O)CC(c1cccs1)C2 (stereo not drawn) | inconclusive: 44.9%
24 | O=C(CCCOc1ccc(Cl)cc1Cl)N/N=C/c1ccccc1 | inconclusive: 33.3%
25 | Cc1cc(Nc2ccc3c(c2)OCCO3)c2cccc(C)c2n1 | inactive: -0.736%
26 | O=C(Oc1ccc(Oc2ccccc2)cc1)N1CCC(O)CC1 | inconclusive: 74.5%
27 | CCOC(=O)C(C)Sc1cc(CS(=O)(=O)c2ccccc2)nc(-c2ccccc2)n1 (stereo not drawn) | inconclusive: 50.2%
28 | O=C(Nc1ccccc1Br)c1ccc(OC(=S)N2CCOCC2)cc1 | inconclusive: 60.2%
29 | S=C(NCCC1=CCCCC1)Nc1ccccc1 | inconclusive: 67.1%
30 | CCOC(=O)C1CCCN(CC(O)COC(c2ccccc2)c2ccccc2)C1 (stereo not drawn) | inactive: 1.14%
31 | COc1ccc(-c2csc(N3CCSCC3)n2)cc1 | inconclusive: 33.7%
32 | COc1ccc(NC(=O)C2CCCN(c3nccc(C)n3)C2)cc1 (stereo not drawn) | active: 93.6%
33 | COC(=O)c1ccc(CSc2nc3ccc(S(N)(=O)=O)cc3[nH]2)cc1 | inactive: 4.69%
34 | Clc1ccc(-c2nc3cnccn3c2NC2CCCC2)cc1 | inactive: 21.5%
35 | O=C(Nc1cccc2ncccc12)c1ccc(Cl)cc1 | inactive: -0.476%
36 | Cc1cccc(CSCc2ccc(C(=O)NC(C)C)o2)c1 | inconclusive: 36.3%
37 | O=C(c1ccc2c(c1)OCO2)N(Cc1cccs1)C1(C(=O)NC2CCCCC2)CCCCC1 | inconclusive: 54.4%
38 | O=C(NN/C(=N/S(=O)(=O)c1ccc(Cl)cc1)c1ccccc1)c1cccc(Cl)c1 | inconclusive: 31.3%
39 | COCCCN1C(=O)C(O)=C(C(=O)c2ccco2)C1c1ccccc1 (stereo not drawn) | inactive: 2.41%
40 | COc1cc(OC)c(OC)cc1CNC(=O)CCN1C(=O)c2cccc([N+](=O)[O-])c2C1=O | inactive: -1.37%

Row | SMILES | activation
41 | CC(Cc1ccco1)NC(=O)c1ccc(C(F)(F)F)cc1 (stereo not drawn) | inconclusive: 58.1%
42 | O=C(Nc1ccc(SC(F)F)cc1)c1ccccc1F | inconclusive: 54.9%
43 | CCOc1cc(C(=O)N[C@@H](C)C(=O)N2CCC3(CC2)NCCc2[nH]cnc23)cc(OCC)c1OCC | inactive: -2.35%
44 | O=C(Nc1ccc(F)cc1)C(NC1CCCCC1)c1ccccc1 (stereo not drawn) | inconclusive: 50.6%
45 | COc1cccc(OCC(O)CNC(=O)c2oc3c(C)c(C)ccc3c2C)c1 (stereo not drawn) | inconclusive: 32.6%
46 | CC(C)CNC(=O)CSc1nc2scc(-c3ccccc3)c2c(=O)[nH]1 | inactive: -3.16%
47 | CCOC(=O)c1sc2c(c1C)C(c1cccs1)C1=C(CCCC1=O)N2 (stereo not drawn) | inconclusive: 52.2%
48 | CCOC(=O)CC1(NC(=O)c2cc(COc3ccc(F)c(F)c3)on2)CCCCC1 | inconclusive: 36.8%
49 | COc1cccc(C(=O)COc2ccc(NC(=O)c3cccs3)cc2)c1 | inactive: 24.9%
50 | COc1ccc(-n2ncc3c(NCc4ccco4)ncnc32)cc1 | inactive: -2.93%
51 | O=C(CSc1nc2ccccc2c(=O)n1Cc1ccco1)N1CCCC1 | inconclusive: 53.2%
52 | Cc1ccc(NC(=O)CN2CCN(S(=O)(=O)c3cccs3)CC2)cc1S(=O)(=O)N(C)C | inactive: 1.18%
53 | Cc1cc(OCC(=O)Nc2cccc(S(=O)(=O)N3CCCC3)c2)ccc1Cl | inconclusive: 46.5%
54 | O=C(Cn1cncn1)c1ccccc1Br | inactive: -3.09%
55 | CC(=O)c1cccc(NC(=O)CSc2nc(N3CCCCC3)nc(N3CCCCC3)n2)c1 | inconclusive: 30.3%
56 | Cc1occc1C(=O)N1CCN(c2ccc(Cl)cc2)CC1 | inconclusive: 38.5%
57 | Cc1cc(C)c2nc(C)cc(Nc3ccc(C(=O)N4CCOCC4)cc3)c2c1 | inconclusive: 38.8%
58 | COc1cccc(-c2ccc3ncnc(NCc4cccs4)c3c2)c1 | inconclusive: 53.2%

Source: PubChem BioAssay AID540275 (National Center for Advancing Translational Sciences (NCATS), 2011)
